Among all 2,000 compounds or so, about 190 (9.5%) were called active. About 14% were inconclusive and are not listed.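 How the source made its calls: active means fitted activation curve crossing 40% at a concentration no higher than the sample's top valid tested dose; inconclusive means flat fitted curve at 30% to 70% activation, or poor curve fit; inactive means signal decrease, flat curve within 30%, or the rest.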 Most of the strongest results are missing from this list.
Assay: sustained heat shock response element induction – cell-based, mouse, luciferase, cherry-pick, dose, confirmation (AID 602296);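 further: test compounds applied by themselves with no MG132 co-treatment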
Details: NIH3T3-HGL HSF-1 response element luciferase, 48 h; at 26 µM (top of the series) unless noted

activation, inactive:
CCn1cnc2c1c(=O)n(Cc1nnc3n1-c1ccccc1SC3)c(=O)n2Cc1ccccc1 -8.97%, O=[N+]([O-])c1ccc(/C=[N+](\[O-])[C@@H]2CCCC[C@@H]2/[N+]([O-])=C/c2ccc([N+](=O)[O-])o2)o1 -100%, CCCc1cc(=O)oc2cc(C)c(CN3CCCC3)c(O)c12 3.75%, Cc1ccc2c(c1)/C(=C/c1ccc(F)cc1)C(=O)N2 -38.1%, CN(CC(=O)Nc1ccccc1Cl)CC(=O)Nc1c(F)cccc1F -16%, COc1ccc2c(c1)c(C(=O)CN1CCCCC1)c(C)n2C -1.51%, CCOc1ccc(S(=O)(=O)NCCSc2ccccc2)cc1 -2.3%, Cc1ccc(C(c2nnnn2C2CCCC2)N2CCc3ccccc32)cc1 (stereo not given) 22.2%, Cc1cc2c(ncn2C)c(NS(=O)(=O)c2cc(Cl)ccc2Cl)c1C -10.5%, O=C(CSc1nnc(-c2ccccc2)c(-c2ccccc2)n1)N1CCc2ccccc21 -17.6%, Cc1cc(C(=O)c2ccc(C(C)(C)C)cc2)c(NC(=O)CCl)s1 -108%, Cc1cccc(CN2CCC(C(=O)Nc3cccc(-c4cscn4)c3)CC2)n1 -16.6%, S=c1[nH]cc(-c2ccccc2)n1-c1ccccc1Cl -7.21%, COC(=O)c1c(NC(=O)c2ccc([N+](=O)[O-])o2)sc2c1CCN(C(C)C)C2 -93.6%, Oc1ccc(-c2nc3cnccn3c2Nc2ccc3c(c2)OCCO3)cc1 1.81%, Cc1cc(Sc2nnc(N)s2)c2ccccc2n1 -101%, C=CCn1c(CCNC(=O)c2ccc(Cl)c(Cl)c2)nnc1SCCOc1ccc(OC)cc1 -47%, COCCCNC(=O)c1c[nH]c2ccc(S(=O)(=O)N3CCc4ccccc43)cc2c1=O -7.37%, COc1ccc(C)cc1NC(=O)CSc1nnc(COc2ccc(Cl)cc2)n1Cc1ccco1 -95.2%, Fc1ccc(C2NC(=S)NC3=C2N2CCC3CC2)cc1 (stereo not given) -0.901%, COC(=O)/C(C#N)=C/c1c(N2CCCCCC2)nc2c(C)cccn2c1=O -36.1%, CCc1cc(=O)oc2c(CNCc3ccccc3F)c(O)c(Cl)cc12 2.3%, CC(C)N(Cc1nc(-c2ccc(Cl)cc2)no1)C(=O)CN(C)S(=O)(=O)c1ccc(Cl)cc1 -36%, Oc1cc(-c2ccccc2)c2ccccc2c1 -26.3%, O=C(CCc1nnc(Cc2ccc(-c3ccccc3)cc2)o1)N1CCCC1 -14.5%

Source: PubChem BioAssay AID602296 (Broad Institute, 2012)
